Source: publication PMC7093409
No constants are given. Whether binding was seen depends on the method and setting. Binding seen in cells or lysates may run through a third protein. Some binding calls cover weakened binding; strength is not graded here.

Target: T1, ELKS1 (glutamic acid/leucine/lysine/serine-rich protein), endogenous (mouse (endogenous in brain and cultured neurons)) (UniProt Q99MI1)
T1 sequence: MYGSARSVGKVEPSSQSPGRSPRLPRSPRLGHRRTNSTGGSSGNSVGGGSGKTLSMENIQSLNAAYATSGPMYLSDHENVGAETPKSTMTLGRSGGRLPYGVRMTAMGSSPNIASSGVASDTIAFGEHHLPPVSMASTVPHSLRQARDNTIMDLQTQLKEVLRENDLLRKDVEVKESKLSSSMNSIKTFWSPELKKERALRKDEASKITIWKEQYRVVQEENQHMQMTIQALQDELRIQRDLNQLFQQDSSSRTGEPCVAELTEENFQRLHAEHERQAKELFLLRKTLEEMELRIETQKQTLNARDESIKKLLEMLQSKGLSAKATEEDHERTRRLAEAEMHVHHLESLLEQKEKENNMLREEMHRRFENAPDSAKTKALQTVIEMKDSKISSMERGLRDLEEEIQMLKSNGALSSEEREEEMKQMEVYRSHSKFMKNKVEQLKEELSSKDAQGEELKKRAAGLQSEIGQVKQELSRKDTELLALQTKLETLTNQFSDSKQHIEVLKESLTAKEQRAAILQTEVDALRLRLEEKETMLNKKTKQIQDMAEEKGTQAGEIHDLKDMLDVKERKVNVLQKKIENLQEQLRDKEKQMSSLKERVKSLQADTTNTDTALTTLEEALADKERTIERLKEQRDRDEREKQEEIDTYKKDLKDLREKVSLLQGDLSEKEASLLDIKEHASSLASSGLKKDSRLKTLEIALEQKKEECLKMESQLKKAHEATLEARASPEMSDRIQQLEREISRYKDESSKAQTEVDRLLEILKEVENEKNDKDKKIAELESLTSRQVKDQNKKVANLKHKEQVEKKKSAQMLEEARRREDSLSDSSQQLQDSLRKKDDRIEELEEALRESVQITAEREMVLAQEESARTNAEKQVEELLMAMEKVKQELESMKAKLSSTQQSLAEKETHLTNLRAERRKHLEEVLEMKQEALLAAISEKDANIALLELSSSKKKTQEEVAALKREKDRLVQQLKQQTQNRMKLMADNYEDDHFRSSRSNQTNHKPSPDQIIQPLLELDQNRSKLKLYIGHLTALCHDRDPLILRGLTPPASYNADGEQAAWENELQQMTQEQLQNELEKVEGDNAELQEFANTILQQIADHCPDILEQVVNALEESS
Assay: co-IP; endogenous ELKS1 and CLASP2, mouse brain; which protein was precipitated is not told in the text (Supplementary Fig. 6s)

B1: CLASP2 (Cytoplasmic linker associated protein 2), endogenous (protein, UniProt Q8BRT1 1-1286)
chain: MRRLICKRICDYKSFDDEESVDGNRPSSAASAFKVPAPKTPGNPVSSARKPGSAGGPKVGGPSKEGGAGAVDEDDFIKAFTDVPSVQIYSSRELEETLNKIREILSDDKHDWDQRANALKKIRSLLVAGAAQYDCFFQHLRLLDGALKLSAKDLRSQVVREACITVAHLSTVLGNKFDHGAEAIVPTLFNLVPNSAKVMATSGCAAIRFIIRHTHVPRLIPLITSNCTSKSVPVRRRSFEFLDLLLQEWQTHSLERHAAVLVETIKKGIHDADAEARVEARKTYMGLRNHFPGEAETLYNSLEPSYQKSLQTYLKSSGSVASLPQSDRSSSSSQESLNRPFSSKWSTANPSTVAGRVSVGGSKANPLPGSLQRSRSDIDVNAAAGAKAHHAAGQAVRSGRLGAGALNPGSYASLEDTSDKMDGTASDDGRVRAKLSTPLVAVGNAKTDSRGRSRTKMVSQSQPGSRSGSPGRVLTTTALSTVSSGAQRVLVNSASAQKRSKIPRSQGCSREASPSRLSVARSSRIPRPSVSQGCSREASRESSRDTSPVRSFQPLGPGYGISQSSRLSSSVSAMRVLNTGSDVEEAVADALLLGDIRTKKKPARRRYESYGMHSDDDANSDASSACSERSYSSRNGSIPTYMRQTEDVAEVLNRCASSNWSERKEGLLGLQNLLKNQRTLSRIELKRLCEIFTRMFADPHGKVFSMFLETLVDFIQVHKDDLQDWLFVLLTQLLKKMGADLLGSVQAKVQKALDITRESFPNDLQFNILMRFTVDQTQTPSLKVKVAILKYIETLAKQMDPRDFTNSSETRLAVSRVITWTTEPKSSDVRKAAQSVLISLFELNTPEFTMLLGALPKTFQDGATKLLHNHLRNTGNGTQSSMGSPLTRPTPRSPANWSSPLTSPTNTSQNTLSPSAFDYDTENMNSEDIYSSLRGVTEAIQNFSFRSQEDMSEPVRRDPKKEDGDTICSGPGMSDPRAGGDAADGSQPALDNKASLLHSMPLHSSPRSRDYNPYNYSDSISPFNKSALKEAMFDDDADQFPDDLSLDHSDLVAELLKELSNHNERIEERKIALYELMKLTQEESFSVWDEHFKTILLLLLETLGDKEPTIRALALKVLKEILRHQPARFKNYAELTVMKTLEAHKDPHKEVVRSAEEAASVLATSISPEQCIKVLCPIIQTADYPINLAAIKMQTKVIERVSKETLNMLLPEIMPGLIQGYDNSESSVRKACVFCLVAVHAVIGDELKPHLSQLTGSKMKLLNLYIKRAQTGSAGADPTADVSGQS
Question: How did the binding turn out when B1 was run?
Answer: binds
